Assay results: paper PMC7157520
Results are given in words; binding and its absence hold for the method and conditions named. For some of these results: Binding seen in cells or lysates may run through a third protein. Some results given as binding are weak or reduced against the parent protein; the word gives no strength. Tags and fused reporters may be left off the sequences shown.

By UniProt entry, the sequences of proteins in these tests, tags left out.
UniProt Q6VN20: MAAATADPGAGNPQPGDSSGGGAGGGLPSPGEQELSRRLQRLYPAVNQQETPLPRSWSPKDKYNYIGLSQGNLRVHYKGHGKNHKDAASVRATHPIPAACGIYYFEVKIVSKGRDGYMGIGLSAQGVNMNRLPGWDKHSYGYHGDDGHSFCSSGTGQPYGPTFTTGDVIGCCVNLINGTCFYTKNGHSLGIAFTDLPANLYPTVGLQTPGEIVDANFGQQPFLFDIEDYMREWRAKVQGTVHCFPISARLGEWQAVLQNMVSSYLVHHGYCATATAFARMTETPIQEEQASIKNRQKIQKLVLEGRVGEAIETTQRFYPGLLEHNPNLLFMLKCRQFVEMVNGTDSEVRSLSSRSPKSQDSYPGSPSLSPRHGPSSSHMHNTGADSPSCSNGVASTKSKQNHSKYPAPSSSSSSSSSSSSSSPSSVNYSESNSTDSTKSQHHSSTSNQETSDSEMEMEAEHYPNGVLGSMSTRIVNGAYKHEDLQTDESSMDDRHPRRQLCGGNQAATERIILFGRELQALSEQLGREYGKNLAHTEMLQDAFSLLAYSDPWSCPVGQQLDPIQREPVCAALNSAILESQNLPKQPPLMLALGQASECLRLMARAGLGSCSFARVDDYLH

How the values were obtained:
BD-RanBP10 = BD-RanBP10 (UniProt Q6VN20); test: two-hybrid
BD-RanGAP1 = molecular target: T1, BD-RanGAP1 (UniProt P46060); test: two-hybrid
T1 sequence: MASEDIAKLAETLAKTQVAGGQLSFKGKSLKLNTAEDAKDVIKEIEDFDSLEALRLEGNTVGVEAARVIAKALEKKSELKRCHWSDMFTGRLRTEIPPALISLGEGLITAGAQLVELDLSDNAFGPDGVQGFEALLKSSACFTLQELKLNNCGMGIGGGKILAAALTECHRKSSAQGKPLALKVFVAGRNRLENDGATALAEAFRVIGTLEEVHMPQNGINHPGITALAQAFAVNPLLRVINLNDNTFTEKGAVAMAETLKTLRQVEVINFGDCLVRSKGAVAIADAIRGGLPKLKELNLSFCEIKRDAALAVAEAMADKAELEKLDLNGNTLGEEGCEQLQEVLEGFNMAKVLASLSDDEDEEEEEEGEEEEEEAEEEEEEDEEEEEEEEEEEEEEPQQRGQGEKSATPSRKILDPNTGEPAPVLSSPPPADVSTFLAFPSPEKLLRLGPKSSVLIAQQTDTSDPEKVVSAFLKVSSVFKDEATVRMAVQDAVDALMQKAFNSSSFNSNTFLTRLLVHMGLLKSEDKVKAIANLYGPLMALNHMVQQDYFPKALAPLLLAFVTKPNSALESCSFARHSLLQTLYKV

Strep-RanBP10 = Strep-RanBP10 (UniProt Q6VN20); test: co-IP
[1] = molecular target: T2, FLAG-LegG1 (L. pneumophila strain Philadelphia-1) (UniProt Q5ZU32); test: co-IP
T2 sequence: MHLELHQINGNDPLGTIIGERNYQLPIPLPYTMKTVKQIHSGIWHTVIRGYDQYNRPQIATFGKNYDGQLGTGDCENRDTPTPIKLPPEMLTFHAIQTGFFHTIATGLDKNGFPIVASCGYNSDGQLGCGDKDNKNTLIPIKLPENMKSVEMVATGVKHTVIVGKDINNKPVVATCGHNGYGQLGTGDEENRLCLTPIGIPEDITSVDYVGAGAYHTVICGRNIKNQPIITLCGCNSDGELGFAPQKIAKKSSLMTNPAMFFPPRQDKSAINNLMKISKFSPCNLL

B1: AD-LegG1 (protein, UniProt Q5ZU32 1-286)
chain: T2 sequence
binding (BD-RanBP10): binds | binding (BD-RanGAP1): no binding

B2: GFP-LegG1 (protein, UniProt Q5ZU32 1-286)
chain: T2 sequence
binding (Strep-RanBP10): binds

B3: RNA1-Strep (protein, UniProt P11745 1-407)
chain: MATLHFVPQHEEEQVYSISGKALKLTTSDDIKPYLEELAALKTCTKLDLSGNTIGTEASEALAKCIAENTQVRESLVEVNFADLYTSRLVDEVVDSLKFLLPVLLKCPHLEIVNLSDNAFGLRTIELLEDYIAHAVNIKHLILSNNGMGPFAGERIGKALFHLAQNKKAASKPFLETFICGRNRLENGSAVYLALGLKSHSEGLKVVKLYQNGIRPKGVATLIHYGLQYLKNLEILDLQDNTFTKHASLILAKALPTWKDSLFELNLNDCLLKTAGSDEVFKVFTEVKFPNLHVLKFEYNEMAQETIEVSFLPAMEKGNLPELEKLEINGNRLDEDSDALDLLQSKFDDLEVDDFEEVDSEDEEGEDEEDEDEDEKLEEIETERLEKELLEVQVDDLAERLAETEIK
binding [1]: no binding
